Some of the results follow.
Key:
Test in all cases: log2 fold change, soluble protein after heating vs DMSO (PISA); higher = thermal stabilisation; K562 lysate, 10 uM; active = over 0.2 and 3.5 SD of the protein, either way, in both replicates (recomputed)
erlotinib = compound: C#Cc1cccc(Nc2ncnc3cc(OCCOC)c(OCCOC)cc23)c1 [erlotinib]
In short: (§1)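 Thermal stability, expressed as log-two fold change relative to solvent controls, is given from duplicates. Crude K562 extract in PBS pH 7.4 with 1 mM MgCl2, at 1 mg/mL protein, was treated with 10 μM compound for 30 min and heated in aliquots for 3 min across 48°C-58°C. After pooling, adjustment to 0.5% NP-40 at 4°C and centrifugation at 21,000xg for 90 min, supernatant protein was measured by TMTpro 16plex LC-MS/MS with channel sums equalised.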

Sequences of proteins named here, by UniProt entry; tags and fusion partners are left off. A change or cut given only in a name is not applied to a line headed by its entry.
UniProt P63172, whole entry, looked up: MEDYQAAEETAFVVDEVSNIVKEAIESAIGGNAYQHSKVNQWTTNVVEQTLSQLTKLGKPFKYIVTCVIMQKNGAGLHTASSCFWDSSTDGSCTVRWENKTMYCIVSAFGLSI
UniProt Q8NCM8: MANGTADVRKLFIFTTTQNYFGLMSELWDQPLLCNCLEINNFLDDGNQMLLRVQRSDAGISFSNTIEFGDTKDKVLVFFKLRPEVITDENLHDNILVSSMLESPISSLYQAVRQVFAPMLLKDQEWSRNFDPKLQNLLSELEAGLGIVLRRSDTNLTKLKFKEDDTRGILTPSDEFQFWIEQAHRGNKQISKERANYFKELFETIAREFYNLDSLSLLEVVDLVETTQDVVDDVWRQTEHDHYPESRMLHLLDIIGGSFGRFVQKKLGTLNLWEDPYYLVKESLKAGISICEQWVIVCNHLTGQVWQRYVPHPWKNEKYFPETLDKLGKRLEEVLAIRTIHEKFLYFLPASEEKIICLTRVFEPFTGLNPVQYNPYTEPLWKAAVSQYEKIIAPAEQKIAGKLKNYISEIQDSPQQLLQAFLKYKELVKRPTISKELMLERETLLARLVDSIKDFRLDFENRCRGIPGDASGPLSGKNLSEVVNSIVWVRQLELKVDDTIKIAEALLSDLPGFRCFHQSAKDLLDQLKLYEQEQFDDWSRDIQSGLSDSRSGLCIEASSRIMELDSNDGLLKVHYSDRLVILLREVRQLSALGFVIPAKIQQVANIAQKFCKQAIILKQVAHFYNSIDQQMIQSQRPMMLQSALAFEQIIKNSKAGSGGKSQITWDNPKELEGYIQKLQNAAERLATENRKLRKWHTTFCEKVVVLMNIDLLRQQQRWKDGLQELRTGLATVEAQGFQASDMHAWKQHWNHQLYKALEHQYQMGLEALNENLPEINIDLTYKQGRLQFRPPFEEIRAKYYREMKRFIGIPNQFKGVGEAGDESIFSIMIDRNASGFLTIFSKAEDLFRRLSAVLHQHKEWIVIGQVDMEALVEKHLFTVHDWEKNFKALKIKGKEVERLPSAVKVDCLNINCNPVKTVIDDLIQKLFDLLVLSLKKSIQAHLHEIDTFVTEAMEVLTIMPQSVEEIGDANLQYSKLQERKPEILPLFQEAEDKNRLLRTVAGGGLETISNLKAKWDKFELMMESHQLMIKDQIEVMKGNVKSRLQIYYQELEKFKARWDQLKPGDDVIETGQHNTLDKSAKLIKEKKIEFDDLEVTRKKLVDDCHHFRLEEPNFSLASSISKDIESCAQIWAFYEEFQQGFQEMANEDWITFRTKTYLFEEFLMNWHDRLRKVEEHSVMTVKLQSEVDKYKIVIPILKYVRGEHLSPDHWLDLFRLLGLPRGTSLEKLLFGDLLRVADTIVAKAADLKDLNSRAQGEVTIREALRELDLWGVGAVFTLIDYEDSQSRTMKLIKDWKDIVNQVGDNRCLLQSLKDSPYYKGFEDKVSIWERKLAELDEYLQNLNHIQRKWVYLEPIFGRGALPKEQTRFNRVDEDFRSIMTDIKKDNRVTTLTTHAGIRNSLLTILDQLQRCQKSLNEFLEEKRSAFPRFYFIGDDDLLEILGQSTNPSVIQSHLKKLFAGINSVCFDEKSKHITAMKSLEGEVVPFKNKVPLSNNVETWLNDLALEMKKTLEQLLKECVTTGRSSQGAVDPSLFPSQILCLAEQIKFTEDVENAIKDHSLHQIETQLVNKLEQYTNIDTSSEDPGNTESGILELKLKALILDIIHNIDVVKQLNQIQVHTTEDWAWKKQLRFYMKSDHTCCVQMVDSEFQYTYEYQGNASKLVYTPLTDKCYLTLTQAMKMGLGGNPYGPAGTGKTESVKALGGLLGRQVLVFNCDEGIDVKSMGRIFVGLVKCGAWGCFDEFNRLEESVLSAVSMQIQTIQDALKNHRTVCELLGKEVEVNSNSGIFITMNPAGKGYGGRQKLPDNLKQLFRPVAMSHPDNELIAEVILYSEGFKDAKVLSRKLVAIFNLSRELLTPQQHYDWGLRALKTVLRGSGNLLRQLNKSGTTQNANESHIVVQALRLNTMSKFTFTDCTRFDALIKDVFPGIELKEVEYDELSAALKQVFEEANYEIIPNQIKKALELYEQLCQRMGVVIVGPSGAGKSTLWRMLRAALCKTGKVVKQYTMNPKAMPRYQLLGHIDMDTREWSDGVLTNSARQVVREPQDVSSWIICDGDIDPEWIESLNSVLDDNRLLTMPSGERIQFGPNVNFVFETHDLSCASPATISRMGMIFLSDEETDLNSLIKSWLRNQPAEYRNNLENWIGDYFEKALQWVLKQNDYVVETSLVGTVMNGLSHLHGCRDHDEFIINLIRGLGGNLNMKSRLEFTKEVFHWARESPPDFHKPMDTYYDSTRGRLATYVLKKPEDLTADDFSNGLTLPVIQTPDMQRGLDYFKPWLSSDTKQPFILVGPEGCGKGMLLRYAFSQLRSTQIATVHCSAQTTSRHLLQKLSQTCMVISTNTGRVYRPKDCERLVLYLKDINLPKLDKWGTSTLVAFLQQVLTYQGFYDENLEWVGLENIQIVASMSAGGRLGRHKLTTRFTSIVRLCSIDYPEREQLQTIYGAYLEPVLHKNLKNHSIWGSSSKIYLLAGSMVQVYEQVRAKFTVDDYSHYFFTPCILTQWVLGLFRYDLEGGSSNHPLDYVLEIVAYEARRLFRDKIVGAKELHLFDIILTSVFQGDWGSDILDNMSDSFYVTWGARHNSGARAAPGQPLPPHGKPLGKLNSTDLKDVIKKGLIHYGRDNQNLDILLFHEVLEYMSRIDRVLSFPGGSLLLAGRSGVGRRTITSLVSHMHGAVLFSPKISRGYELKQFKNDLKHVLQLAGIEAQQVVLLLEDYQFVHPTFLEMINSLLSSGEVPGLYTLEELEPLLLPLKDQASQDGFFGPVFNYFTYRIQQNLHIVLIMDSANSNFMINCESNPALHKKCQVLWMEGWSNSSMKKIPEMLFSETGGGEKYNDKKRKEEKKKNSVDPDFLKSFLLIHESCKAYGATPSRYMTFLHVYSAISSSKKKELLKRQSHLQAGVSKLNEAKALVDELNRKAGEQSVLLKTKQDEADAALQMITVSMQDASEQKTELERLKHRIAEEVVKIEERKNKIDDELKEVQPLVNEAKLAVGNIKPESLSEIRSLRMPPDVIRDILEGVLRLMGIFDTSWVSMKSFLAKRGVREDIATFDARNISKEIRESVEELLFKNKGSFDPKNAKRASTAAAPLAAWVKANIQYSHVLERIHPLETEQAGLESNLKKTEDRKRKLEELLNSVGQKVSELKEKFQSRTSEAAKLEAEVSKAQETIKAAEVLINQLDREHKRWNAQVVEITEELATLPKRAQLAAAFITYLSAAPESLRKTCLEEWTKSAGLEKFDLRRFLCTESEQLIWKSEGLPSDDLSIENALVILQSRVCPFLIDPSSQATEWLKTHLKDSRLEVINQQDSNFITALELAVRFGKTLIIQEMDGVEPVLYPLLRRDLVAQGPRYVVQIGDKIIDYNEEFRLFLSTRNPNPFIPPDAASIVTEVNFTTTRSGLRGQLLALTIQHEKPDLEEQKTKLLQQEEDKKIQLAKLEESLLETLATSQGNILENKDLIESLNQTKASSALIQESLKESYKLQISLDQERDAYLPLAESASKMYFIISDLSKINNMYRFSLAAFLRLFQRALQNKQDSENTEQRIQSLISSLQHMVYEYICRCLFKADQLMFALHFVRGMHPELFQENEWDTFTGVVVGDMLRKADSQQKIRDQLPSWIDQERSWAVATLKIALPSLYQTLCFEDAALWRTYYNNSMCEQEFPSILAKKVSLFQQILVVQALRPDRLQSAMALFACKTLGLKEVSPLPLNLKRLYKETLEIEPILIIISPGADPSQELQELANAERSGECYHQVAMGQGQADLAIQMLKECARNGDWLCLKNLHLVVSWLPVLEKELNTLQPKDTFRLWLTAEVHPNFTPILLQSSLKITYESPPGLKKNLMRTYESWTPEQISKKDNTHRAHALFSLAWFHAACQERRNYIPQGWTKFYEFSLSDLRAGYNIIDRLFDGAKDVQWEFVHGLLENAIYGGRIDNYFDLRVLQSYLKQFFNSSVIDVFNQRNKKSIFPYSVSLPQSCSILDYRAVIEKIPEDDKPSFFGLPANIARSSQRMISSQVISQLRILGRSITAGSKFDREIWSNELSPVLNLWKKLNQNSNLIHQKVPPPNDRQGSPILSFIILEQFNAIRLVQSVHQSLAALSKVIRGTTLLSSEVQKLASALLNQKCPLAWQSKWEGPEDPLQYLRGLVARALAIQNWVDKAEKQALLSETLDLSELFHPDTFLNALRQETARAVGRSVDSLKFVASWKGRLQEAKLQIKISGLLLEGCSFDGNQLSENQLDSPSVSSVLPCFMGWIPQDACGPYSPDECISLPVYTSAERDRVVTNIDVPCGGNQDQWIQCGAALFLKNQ
UniProt Q6V1X1: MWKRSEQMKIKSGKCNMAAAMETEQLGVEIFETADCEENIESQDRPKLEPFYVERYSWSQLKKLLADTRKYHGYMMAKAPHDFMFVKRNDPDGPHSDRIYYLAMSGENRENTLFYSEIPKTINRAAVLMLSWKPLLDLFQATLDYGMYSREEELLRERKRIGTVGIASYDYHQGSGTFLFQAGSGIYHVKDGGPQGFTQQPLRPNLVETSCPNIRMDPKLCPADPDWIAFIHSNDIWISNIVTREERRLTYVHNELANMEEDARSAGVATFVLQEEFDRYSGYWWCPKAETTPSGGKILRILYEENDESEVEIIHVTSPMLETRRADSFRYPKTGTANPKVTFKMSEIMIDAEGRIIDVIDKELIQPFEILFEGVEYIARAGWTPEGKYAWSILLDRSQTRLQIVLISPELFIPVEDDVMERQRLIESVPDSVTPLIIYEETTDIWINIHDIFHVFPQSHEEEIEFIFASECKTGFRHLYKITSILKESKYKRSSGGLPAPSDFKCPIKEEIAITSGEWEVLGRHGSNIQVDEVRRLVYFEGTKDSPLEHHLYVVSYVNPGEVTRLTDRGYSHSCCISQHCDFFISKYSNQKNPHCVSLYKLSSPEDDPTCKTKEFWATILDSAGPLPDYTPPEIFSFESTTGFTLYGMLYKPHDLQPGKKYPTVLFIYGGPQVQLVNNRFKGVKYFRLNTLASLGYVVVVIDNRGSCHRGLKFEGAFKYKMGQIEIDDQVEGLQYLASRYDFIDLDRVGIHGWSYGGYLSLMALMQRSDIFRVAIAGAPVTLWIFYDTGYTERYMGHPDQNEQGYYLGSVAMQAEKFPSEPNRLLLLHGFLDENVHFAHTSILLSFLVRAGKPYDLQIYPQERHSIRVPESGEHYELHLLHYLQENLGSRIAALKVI
UniProt O95905: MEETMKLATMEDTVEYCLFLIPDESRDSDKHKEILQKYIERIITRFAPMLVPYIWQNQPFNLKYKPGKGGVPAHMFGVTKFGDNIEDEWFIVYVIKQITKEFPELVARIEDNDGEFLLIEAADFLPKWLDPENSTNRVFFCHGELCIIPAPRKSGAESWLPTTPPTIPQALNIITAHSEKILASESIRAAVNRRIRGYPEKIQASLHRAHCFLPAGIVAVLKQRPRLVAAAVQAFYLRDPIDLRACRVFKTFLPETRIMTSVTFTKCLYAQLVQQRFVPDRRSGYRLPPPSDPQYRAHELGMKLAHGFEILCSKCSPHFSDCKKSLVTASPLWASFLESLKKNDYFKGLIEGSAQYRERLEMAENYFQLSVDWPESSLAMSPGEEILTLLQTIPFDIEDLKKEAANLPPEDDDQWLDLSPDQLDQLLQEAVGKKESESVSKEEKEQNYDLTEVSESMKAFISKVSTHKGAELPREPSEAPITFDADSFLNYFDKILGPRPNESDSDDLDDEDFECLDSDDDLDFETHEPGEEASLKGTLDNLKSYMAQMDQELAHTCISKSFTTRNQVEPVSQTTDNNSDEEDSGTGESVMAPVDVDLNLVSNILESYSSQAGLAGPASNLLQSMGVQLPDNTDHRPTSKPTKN
UniProt P55039: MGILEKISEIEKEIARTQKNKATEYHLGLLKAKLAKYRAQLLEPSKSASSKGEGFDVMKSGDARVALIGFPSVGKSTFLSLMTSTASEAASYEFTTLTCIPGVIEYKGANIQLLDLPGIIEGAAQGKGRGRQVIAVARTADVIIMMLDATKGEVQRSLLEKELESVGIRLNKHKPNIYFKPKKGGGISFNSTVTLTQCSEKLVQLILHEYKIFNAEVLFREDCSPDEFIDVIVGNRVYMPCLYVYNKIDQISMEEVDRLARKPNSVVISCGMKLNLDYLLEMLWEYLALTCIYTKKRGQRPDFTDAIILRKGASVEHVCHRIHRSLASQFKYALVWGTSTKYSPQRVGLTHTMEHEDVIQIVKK
UniProt Q8WWZ3: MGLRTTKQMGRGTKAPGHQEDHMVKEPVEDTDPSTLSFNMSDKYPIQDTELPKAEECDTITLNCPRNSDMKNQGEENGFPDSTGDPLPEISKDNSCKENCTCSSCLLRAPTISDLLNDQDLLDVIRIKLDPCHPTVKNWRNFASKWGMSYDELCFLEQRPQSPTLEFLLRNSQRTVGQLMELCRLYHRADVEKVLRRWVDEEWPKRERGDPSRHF

[1] = compound: C/C(=N\NC(=O)C1=CC(=CC=C1)S(=O)(=O)N2CCOCC2)/C3=C(C=CC(=C3)Cl)O
In short: as §1

[2] = compound: C1=CC(=CC=C1C2=NC3=C(N2)C=C(C=C3)C(=O)N)OC4=CC=C(C=C4)Cl
In short: as §1

[3] = compound: C1=CC2=C(C=CC(=C2)/C=C\3/C(=O)NC(=NCC4=CC=CS4)S3)N=C1
In short: as §1

[4] = compound: C1=CC2=NC=CN=C2C=C1/C=C/3\C(=O)NC(=O)S3
In short: as §1

[5] = compound: C1=CC=C(C=C1)C2=NC(=C(N2)C3=CC=NC=C3)C4=CC(=C(C=C4)Cl)O
In short: as §1

[6] = compound: C1=CC=C2C(=C1)C3=NNC4=CC=CC(=C43)C2=O
In short: as §1

[7] = compound: C1CCN(C1)C(=O)NC2=CC=CC(=C2)NC3=NC=C(C(=N3)NCCC4=CN=CN4)Br
In short: as §1

[8] = compound: C1CN(CCC1(CC2=CC=C(C=C2)Cl)N)C3=NC=NC4=C3C=CN4
In short: as §1

IRAK-1-4 Inhibitor I = compound: C1COCCN1CCN2C3=CC=CC=C3N=C2NC(=O)C4=CC(=CC=C4)[N+](=O)[O-] [IRAK-1-4 Inhibitor I]
In short: as §1

Row | Target | log2 fold change (erlotinib) | log2 fold change [1] | log2 fold change [2] | log2 fold change [3] | log2 fold change [4] | log2 fold change [5] | log2 fold change [6] | log2 fold change [7] | log2 fold change [8] | log2 fold change (IRAK-1-4 Inhibitor I)
1 | DPP7 (UniProt Q9UHL4) | inactive: -0.005 | inactive: -0.091 | inactive: 0.015 | inactive: -0.032 | inactive: -0.033 | inactive: 0.002 | inactive: 0.043 | inactive: -0.03 | inactive: 0.043 | inactive: -0.011
2 | EEF2K (UniProt O00418) | inactive: 0.032 | inactive: 0.024 | inactive: -0.028 | inactive: 0.041 | inactive: 0.038 | inactive: 0 | inactive: -0.026 | inactive: -0.029 | inactive: -0.017 | inactive: -0.023
3 | EDC4 (UniProt Q6P2E9) | inactive: 0.002 | inactive: -0.026 | inactive: -0.022 | inactive: 0.001 | inactive: 0.006 | inactive: -0.001 | inactive: -0.02 | inactive: -0.015 | inactive: 0.014 | inactive: 0.013
4 | DYNLT1 (UniProt P63172) | inactive: 0.073 | inactive: -0.178 | inactive: 0.084 | inactive: -0.031 | inactive: 0.086 | inactive: 0.071 | inactive: -0.017 | inactive: -0.125 | inactive: 0.06 | inactive: 0.017
5 | DPM1 (UniProt O60762) | inactive: -0.009 | inactive: -0.039 | inactive: -0.036 | inactive: 0.056 | inactive: -0.015 | inactive: -0.007 | inactive: 0.041 | inactive: -0.022 | inactive: -0.014 | inactive: -0.008
6 | EHD1 (UniProt Q9H4M9) | inactive: 0.013 | inactive: 0.028 | inactive: 0.028 | inactive: 0.001 | inactive: -0.01 | inactive: 0.008 | inactive: -0.025 | inactive: -0.013 | inactive: 0.017 | inactive: -0.012
7 | EAF1 (UniProt Q96JC9) | inactive: -0.056 | inactive: -0.041 | inactive: 0.093 | inactive: 0.011 | inactive: 0.016 | inactive: 0.035 | inactive: 0.003 | inactive: 0.004 | inactive: 0.027 | inactive: 0.017
8 | DST (UniProt Q03001) | inactive: 0.025 | inactive: -0.035 | inactive: 0.046 | inactive: -0.03 | inactive: -0.042 | inactive: 0 | inactive: -0.16 | inactive: -0.046 | inactive: 0 | inactive: 0.04
9 | DYNC2H1 isoform 2 (UniProt Q8NCM8) | inactive: 0.005 | inactive: 0.02 | inactive: 0.001 | inactive: 0.039 | inactive: -0.033 | inactive: -0.002 | inactive: 0.101 | inactive: 0.015 | inactive: 0.085 | inactive: 0.011
10 | DPF1 isoform 2 (UniProt Q92782) | inactive: 0.146 | inactive: 0.079 | inactive: -0.009 | inactive: 0.215 | inactive: -0.073 | inactive: -0.019 | inactive: 0.165 | inactive: -0.041 | inactive: -0.191 | inactive: -0.019
11 | DTX3L (UniProt Q8TDB6) | inactive: 0.032 | inactive: -0.04 | inactive: 0.022 | inactive: -0.117 | inactive: 0.026 | inactive: -0.076 | inactive: -0.093 | inactive: -0.011 | inactive: -0.018 | inactive: 0.033
12 | EEF1D isoform 2 (UniProt P29692) | inactive: -0.012 | inactive: -0.012 | inactive: 0.008 | inactive: -0.031 | inactive: -0.008 | inactive: -0.019 | inactive: -0.022 | inactive: -0.009 | inactive: 0.016 | inactive: 0.011
13 | DPP8 (UniProt Q6V1X1) | inactive: -0.018 | inactive: 0.022 | inactive: 0.077 | inactive: 0.026 | inactive: -0.046 | inactive: 0.031 | inactive: 0.237 | inactive: -0.072 | inactive: -0.071 | inactive: -0.037
14 | ECD isoform 3 (UniProt O95905) | inactive: 0.04 | inactive: 0.122 | inactive: -0.004 | inactive: -0.015 | inactive: -0.038 | inactive: 0 | inactive: -0.053 | inactive: 0.034 | inactive: 0.106 | inactive: -0.029
15 | DYNC1I2 isoform 5 (UniProt Q13409) | inactive: -0.005 | inactive: 0.001 | inactive: -0.001 | inactive: 0.009 | inactive: 0 | inactive: 0.009 | inactive: 0.019 | inactive: -0.007 | inactive: 0.016 | inactive: 0.018
16 | DPP3 (UniProt Q9NY33) | inactive: -0.014 | inactive: 0.053 | inactive: -0.044 | inactive: -0.004 | inactive: 0 | inactive: -0.007 | inactive: 0.013 | inactive: 0.005 | inactive: 0.006 | inactive: 0.006
17 | EEF2 (UniProt P13639) | inactive: -0.009 | inactive: -0.052 | inactive: 0.005 | inactive: -0.001 | inactive: -0.011 | inactive: 0 | inactive: 0.007 | inactive: 0.013 | inactive: 0.001 | inactive: 0.001
18 | DRG2 (UniProt P55039) | inactive: 0.03 | inactive: -0.056 | inactive: 0.028 | inactive: 0.001 | inactive: -0.005 | inactive: -0.012 | inactive: -0.044 | inactive: 0.009 | inactive: 0.008 | inactive: 0.008
19 | DRG1 (UniProt Q9Y295) | inactive: -0.04 | inactive: 0.014 | inactive: -0.005 | inactive: -0.009 | inactive: -0.004 | inactive: 0.014 | inactive: 0.003 | inactive: -0.011 | inactive: -0.011 | inactive: -0.006
20 | EDARADD (UniProt Q8WWZ3) | inactive: 0.013 | inactive: -0.022 | inactive: 0.045 | inactive: 0.019 | inactive: -0.027 | inactive: 0.049 | inactive: -0.03 | inactive: -0.035 | inactive: -0.064 | inactive: 0.031
21 | EDC3 (UniProt Q96F86) | inactive: -0.008 | inactive: -0.01 | inactive: -0.023 | inactive: -0.02 | inactive: -0.031 | inactive: 0.035 | inactive: -0.011 | inactive: -0.027 | inactive: -0.013 | inactive: 0
22 | ECH1 (UniProt Q13011) | inactive: -0.041 | inactive: -0.049 | inactive: -0.022 | inactive: 0.002 | inactive: -0.022 | active: 0.499 | inactive: 0.232 | inactive: -0.009 | inactive: 0.017 | inactive: -0.007

Reference: the supplement of paper PMC10849652
